PMC9756111, “Stabilization of DNA fork junctions by Smc5/6 complexes revealed by single-molecule imaging”
Results are given in words; binding and its absence hold for the method and conditions named. Binding seen in cells or lysates may run through a third protein. A yes stands for co-enrichment or nearness to the bait. Other partners may have been found.

T1: Smc6 (budding yeast) (UniProt Q12749)
T1 sequence: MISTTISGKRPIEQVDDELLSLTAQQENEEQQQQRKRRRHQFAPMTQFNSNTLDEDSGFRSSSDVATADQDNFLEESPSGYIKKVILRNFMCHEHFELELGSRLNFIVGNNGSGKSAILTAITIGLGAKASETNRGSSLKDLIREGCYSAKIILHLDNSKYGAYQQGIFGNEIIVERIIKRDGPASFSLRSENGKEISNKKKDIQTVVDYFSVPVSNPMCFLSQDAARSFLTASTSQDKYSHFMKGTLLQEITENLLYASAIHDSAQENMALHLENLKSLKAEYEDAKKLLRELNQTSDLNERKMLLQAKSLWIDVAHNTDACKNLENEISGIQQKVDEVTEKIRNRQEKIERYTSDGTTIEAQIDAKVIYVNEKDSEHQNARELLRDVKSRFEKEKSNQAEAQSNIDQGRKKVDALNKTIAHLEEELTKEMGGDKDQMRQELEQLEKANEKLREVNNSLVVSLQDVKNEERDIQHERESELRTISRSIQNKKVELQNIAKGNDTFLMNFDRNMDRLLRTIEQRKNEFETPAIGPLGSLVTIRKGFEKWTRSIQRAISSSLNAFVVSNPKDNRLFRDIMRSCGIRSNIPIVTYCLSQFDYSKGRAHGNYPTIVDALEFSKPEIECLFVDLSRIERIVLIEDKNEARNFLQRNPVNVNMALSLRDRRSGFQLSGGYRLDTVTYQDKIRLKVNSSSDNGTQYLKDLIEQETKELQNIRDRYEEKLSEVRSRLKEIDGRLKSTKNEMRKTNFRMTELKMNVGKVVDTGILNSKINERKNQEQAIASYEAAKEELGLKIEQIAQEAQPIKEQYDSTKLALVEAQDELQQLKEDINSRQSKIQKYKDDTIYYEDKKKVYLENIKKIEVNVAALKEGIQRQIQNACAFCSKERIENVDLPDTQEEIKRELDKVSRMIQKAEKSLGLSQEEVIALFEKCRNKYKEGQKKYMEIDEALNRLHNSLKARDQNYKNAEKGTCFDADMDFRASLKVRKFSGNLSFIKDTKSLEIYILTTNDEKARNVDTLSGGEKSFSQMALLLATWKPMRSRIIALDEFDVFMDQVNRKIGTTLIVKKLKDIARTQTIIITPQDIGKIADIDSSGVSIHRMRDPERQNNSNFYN

B1: Nse1 (protein, UniProt Q07913 1-336)
chain: MEVHEEQVSAPVTGDATAKYLLQYILSARGICHENALILALMRLETDASTLNTEWSIQQWVDKLNDYINAINVKLNLLGYKIIRINHGIGRNAVTLKAKQNFESFEDNTAIRAHNNDYAVLQSIVLPESNRFFVYVNLASTEETKLATRFNQNEIEFMKWAIEQFMISGETIVEGPALETSIIVKEVNRILVAATGDSNLAKWRKFSTFTVGSTNLFQFQELTATDIEDLLLRLCELKWFYRTQEGKFGIDLRCIAELEEYLTSMYNLNTCQNCHKLAIQGVRCGNESCREENEETGENSLSQIWHVDCFKHYITHVSKNCDRCGSSLITEGVYVI
B2: Nse2 (protein, UniProt P38632 1-267)
chain: MALNDNPIPKSVPLHPKSGKYFHNLHARDLSNIYQQCYKQIDETINQLVDSTSPSTIGIEEQVADITSTYKLLSTYESESNSFDEHIKDLKKNFKQSSDACPQIDLSTWDKYRTGELTAPKLSELYLNMPTPEPATMVNNTDTLKILKVLPYIWNDPTCVIPDLQNPADEDDLQIEGGKIELTCPITCKPYEAPLISRKCNHVFDRDGIQNYLQGYTTRDCPQAACSQVVSMRDFVRDPIMELRCKIAKMKESQEQDKRSSQAIDVL
B3: Nse3 (protein, UniProt Q05541 1-303)
chain: MSSIDNDSDVDLTEDLAVAKIVKENPVARKMVRYILSRGESQNSIITRNKLQSVIHEAAREENIAKPSFSKMFMDINAILYNVYGFELQGLPSKNNMNAGGNGSNSNTNKSMPEPLGHRAQKFILLNNVPHSKNFDDFKILQSAHTYEELIVTGEYIGDDIASGTSNTLESKLSTDRDLVYKGVLSVILCIVFFSKNNILHQELIKFLETFGIPSDGSKIAILNITIEDLIKSLEKREYIVRLEEKSDTDGEVISYRIGRRTQAELGLESLEKLVQEIMGLEKEQTKSLHDDIIKSIGDSYSI
B4: Nse4 (protein, UniProt P43124 1-402)
chain: MSSTVISRKRRNSTVTEPDSSGETRKQKKSRSDEKSSSSKDGDPQLEFKVLQGYRDLESEMHKGRAQVTRTGDIGVAMDNLNAVDSLFNKVIGIKNNGLFAHDARAMVSISELAQISVRNLKFDDSRSMVNLENIVNSLKRYMLKEHFKLNNIAENRNDLTLAADEQSAADQQEESDGDIDRTPDDNHTDKATSSFKATSMRHSYLQQFSHYNEFSQFNWFRIGALYNTISKNAPITDHLMGPLSIEKKPRVLTQRRRNNDQVGEKITAEKITQHSLNSTQQETTPEQVKKCFKKLSKKLGPEGSINLFKFIIDPNSFSRSIENLFYTSFLIKEGKLLMEHDEEGLPTIKIKQSISHTDSRSKEIERQRRRAAHQNHIIFQMDMPTWRKLIKKYNITSPFLD

Molecular target: T1, Smc6 (budding yeast)
Experiment: affinity purification with mass spectrometry; eight subunits co-expressed in S. cerevisiae; lysate on StrepTrap HP (Smc6-3xStrepII), desthiobiotin elution, HiTrap Heparin, Superose 6 Increase at 300 mM NaCl; integrity confirmed by SDS-PAGE and mass spectrometry

binding, binds:
B1
B2
B3
B4
